Measured values from PubChem BioAssay (NCATS).
This list was built around the results that the source calls inconclusive (neither active nor inactive); the mix of calls is not that of the screen. For some assays here: A potency beside an inconclusive call is a rough fit, not a confirmed value. The source made the active and inactive calls. Calls follow the shape of the dose curve; as a rule, active = well fitted cell-killing curve with a large enough effect; inconclusive = small, poorly fitted or top-dose-only effect, or effect the other way; inactive = no such curve, though single readings can be large or run the other way.

Legend:
[1] = Quantitative High-Throughput drug screen in 47 multiple myeloma cell lines against the NCATS MIPE library collection: L363_DSMZ cell viability assay (AID 1918984); settings: L363 myeloma viability, CellTiter-Glo ATP luminescence, 48 h; viability (% of control): at 45.8 µM (top of the series); also: nearly all actives have a fitted effect of over 40% in size; also: potency is read from the fitted curve at half-maximal effect
Summary of the method: (§1)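 Viability after 48 h drug exposure was measured as ATP-dependent luminescence. Cells, 500 per well, sat at 37 °C under 5% CO2; DMSO wells set 100%, media-only wells 0%.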

[2] = Quantitative High-Throughput drug screen in 47 multiple myeloma cell lines against the NCATS MIPE library collection: KMS34_JCRB cell viability assay (AID 1918985); settings: KMS34 myeloma viability, CellTiter-Glo ATP luminescence, 48 h; viability, percent of control: at 45.8 µM (top of the series); also: nearly all actives have a fitted effect of over 40% in size; also: potency is read from the fitted curve at half-maximal effect
Summary of the method: as §1

[3] = Quantitative High-Throughput drug screen in 47 multiple myeloma cell lines against the NCATS MIPE library collection: OCIMY7_PLB cell viability assay (AID 1918987); settings: OCI-MY7 myeloma viability, CellTiter-Glo ATP, 48 h; viability (% of DMSO): at 45.8 µM (top of the series); also: nearly all actives have a fitted effect of over 65% in size; also: potency is read from the fitted curve at half-maximal effect
Summary of the method: as §1

[4] = Quantitative High-Throughput drug screen in 47 multiple myeloma cell lines against the NCATS MIPE library collection: OCIMY5_PLB cell viability assay (AID 1918988); settings: OCI-MY5 myeloma viability, ATP luminescence, 48 h; viability, % of control: at 45.8 µM (top of the series); also: nearly all actives have a fitted effect of over 65% in size; also: potency is read from the fitted curve at half-maximal effect;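 as to viability, % of control: 100% = DMSO-treated wells and 0% = wells with media alone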
Summary of the method: as §1

[5] = Quantitative High-Throughput drug screen in 47 multiple myeloma cell lines against the NCATS MIPE library collection: SKMM1_PLB cell viability assay (AID 1919863); settings: SKMM1 myeloma viability, CellTiter-Glo ATP, 48 h; viability: active compounds read low; also: nearly all actives have a fitted effect of over 35% in size; also: potency is read from the fitted curve at half-maximal effect
Summary of the method: as §1

[6] = Quantitative High-Throughput drug screen in 47 multiple myeloma cell lines against the NCATS MIPE library collection: XG6_PLB cell viability assay (AID 1919865); settings: XG6 myeloma viability, CellTiter-Glo ATP luminescence, 48 h; viability (% of control): at 45.8 µM (top of the series); also: nearly all actives have a fitted effect of over 40% in size; also: potency is read from the fitted curve at half-maximal effect
Summary of the method: as §1

[7] = Quantitative High-Throughput drug screen in 47 multiple myeloma cell lines against the NCATS MIPE library collection: XG1_PLB cell viability assay (AID 1919866); also: nearly all actives have a fitted effect of over 35% in size; also: potency is read from the fitted curve at half-maximal effect
Summary of the method: as §1

[8] = Quantitative High-Throughput drug screen in 47 multiple myeloma cell lines against the NCATS MIPE library collection: VP6_DJ cell viability assay (AID 1919867); settings: ATP luminescence, 48 h; viability (% of DMSO): at 45.8 µM (top of the series); also: nearly all actives have a fitted effect of over 40% in size; also: potency is read from the fitted curve at half-maximal effect
Summary of the method: as §1

[9] = Quantitative High-Throughput drug screen in 47 multiple myeloma cell lines against the NCATS MIPE library collection: U266_ATCC cell viability assay (AID 1919864); also: nearly all actives have a fitted effect of over 35% in size; also: potency is read from the fitted curve at half-maximal effect
Summary of the method: as §1

[10] = Quantitative High-Throughput drug screen in 47 multiple myeloma cell lines against the NCATS MIPE library collection: OPM1_PLB cell viability assay (AID 1918989); also: nearly all actives have a fitted effect of over 40% in size
Summary of the method: as §1

SMILES | Potency [1] | Potency [2] | Potency [3] | Potency [4] | Potency [5] | Potency [6] | Potency [7] | Potency [8] | viability [5] | Potency [9] | Potency [10]
CCN(C(=O)c1c(O)c2c(Cl)cccc2n(C)c1=O)c1ccccc1 | inactive | inconclusive: 0.0037 µM [cytotoxic, full curve, poor fit] | inactive | inactive | inconclusive: 9.35 µM [cytotoxic, full curve, poor fit] | inactive | inactive | inconclusive: 0.0012 µM [rising, full curve, poor fit] |  |  | 
O=C(O)c1cc(=O)[nH]c(=O)[nH]1 | inactive | inactive | inconclusive: 0.0132 µM [cytotoxic, full curve, poor fit] | inconclusive: 1.66 µM [rising, partial curve, poor fit] |  | inactive |  | inactive | inactive: 112% |  | 
CCCN[C@H]1CCc2nc(N)sc2C1 | inactive | inactive | inconclusive: 20.9 µM [cytotoxic, partial curve, poor fit] | inconclusive: 1.18 µM [cytotoxic, full curve, poor fit] |  |  | inactive |  | inactive: 141% |  | 
CC1COC2(CCN(c3nc(=O)c4cc(C(F)(F)F)cc([N+](=O)[O-])c4s3)CC2)O1 (configuration not stated) | inconclusive: 11.8 µM [rising, partial curve, poor fit] | inactive | inconclusive: 18.7 µM [rising, partial curve, poor fit] | inconclusive: 0.0042 µM [cytotoxic, full curve, poor fit] |  |  |  | inactive | inactive: 134% |  | 
CCC=CC[C@H]1C(=O)CC[C@@H]1CC(=O)OC | inactive | inactive | inconclusive: 0.0235 µM [rising, full curve, poor fit] | inconclusive: 26.4 µM [cytotoxic, single point] |  |  |  | inconclusive: 0.0209 µM [rising, full curve, poor fit] | inactive: 144% | inactive | 
CCC(=O)O[C@]1(C(=O)CO)CC[C@H]2[C@@H]3CCC4=CC(=O)CC[C@]4(C)[C@@H]3CC[C@@]21C | inconclusive: 0.935 µM [rising, partial curve, poor fit] | active: 0.0017 µM | inconclusive: 11.8 µM [cytotoxic, partial curve, poor fit] | inconclusive: 37.2 µM [cytotoxic, single point] |  | inconclusive: 23.5 µM [cytotoxic, partial curve] | inconclusive: 26.4 µM [cytotoxic, partial curve, poor fit] |  | inactive: 108% |  | 
NCCc1cnc[nH]1 | inconclusive: 0.0019 µM [rising, full curve, poor fit] | inconclusive: 0.0469 µM [rising, full curve, poor fit] | inconclusive: 0.296 µM [cytotoxic, full curve, poor fit] | inactive | inconclusive: 0.0083 µM [rising, full curve, poor fit] | inconclusive: 0.59 µM [cytotoxic, full curve, poor fit] | inactive | inconclusive: 16.6 µM [cytotoxic, partial curve, poor fit] |  |  | 
O=C(O)c1cn(-c2ccc(F)cc2)c2cc(N3CCNCC3)c(F)cc2c1=O | inconclusive: 18.7 µM [cytotoxic, partial curve, poor fit] | inconclusive: 37.2 µM [rising, single point] | inactive | inconclusive: 37.2 µM [cytotoxic, single point] | inconclusive: 2.09 µM [cytotoxic, full curve, poor fit] | inactive |  | inconclusive: 0.0332 µM [rising, full curve, poor fit] |  |  | 
COc1ccc(CC2SC(=O)NC2=O)cc1C(=O)NCc1ccc(C(F)(F)F)cc1 (configuration not stated) | inconclusive: 5.9 µM [cytotoxic, partial curve] | inactive | inconclusive: 16.6 µM [cytotoxic, partial curve, poor fit] | inactive |  | inconclusive: 16.6 µM [cytotoxic, partial curve] | inconclusive: 5.26 µM [cytotoxic, full curve, poor fit] | inconclusive: 9.35 µM [cytotoxic, partial curve, poor fit] |  | inconclusive: 0.0047 µM [rising, full curve, poor fit] | 
CC(C)N(CCCNC(=O)Nc1ccc(C(C)(C)C)cc1)C[C@H]1O[C@@H](n2cc(Br)c3c(N)ncnc32)[C@H](O)[C@H]1O | inactive | active: 20.9 µM | inconclusive: 23.5 µM [cytotoxic, partial curve, poor fit] | inconclusive: 23.5 µM [cytotoxic, partial curve, poor fit] | inconclusive: 20.9 µM [cytotoxic, partial curve, poor fit] |  |  | inconclusive: 26.4 µM [cytotoxic, partial curve, poor fit] |  |  | 
COC(=O)N1CCN(Cc2cccc(NC(=O)Nc3ccc(C)nc3)c2F)CC1 | inconclusive: 11.8 µM [cytotoxic, single point] | inactive | inconclusive: 7.43 µM [cytotoxic, partial curve, poor fit] | inconclusive: 18.7 µM [cytotoxic, partial curve, poor fit] | inconclusive: 0.0066 µM [cytotoxic, full curve, poor fit] |  |  | inconclusive: 18.7 µM [cytotoxic, partial curve, poor fit] |  |  | 
Cc1ncc([N+](=O)[O-])n1CCO | inconclusive: 0.0017 µM [rising, full curve, poor fit] | inconclusive: 0.0012 µM [rising, full curve, poor fit] | inconclusive: 1.05 µM [rising, full curve, poor fit] | inactive | inconclusive: 0.0235 µM [rising, full curve, poor fit] | inactive | inactive | inactive |  |  | 
CC(C)n1cnc2c(NCCCCCCNC(=O)OC(C)(C)C)nc(NCCO)nc21 | inconclusive: 0.059 µM [cytotoxic, full curve, poor fit] | inconclusive: 23.5 µM [cytotoxic, partial curve, poor fit] | inconclusive: 33.2 µM [cytotoxic, partial curve, poor fit] | active: 29.6 µM | inconclusive: 18.7 µM [cytotoxic, partial curve, poor fit] |  |  | inconclusive: 23.5 µM [cytotoxic, partial curve, poor fit] |  |  | 
COC[C@@H](c1ccc(C(F)(F)F)cc1)N1CCN(C2(C)CCN(C(=O)c3c(C)ncnc3C)CC2)C[C@H]1C | inconclusive: 5.26 µM [cytotoxic, full curve, poor fit] | inconclusive: 26.4 µM [rising, single point] | inconclusive: 2.64 µM [cytotoxic, full curve, poor fit] | inconclusive: 14.8 µM [cytotoxic, partial curve, poor fit] |  |  | inconclusive: 33.2 µM [cytotoxic, single point] | active: 23.5 µM | inactive: 118% |  | 
O=C(Nc1cccnc1)N1CCC(Cc2cccc(Oc3ccc(C(F)(F)F)cn3)c2)CC1 | active: 4.69 µM | inconclusive: 18.7 µM [cytotoxic, partial curve, poor fit] | inconclusive: 26.4 µM [cytotoxic, partial curve, poor fit] |  | inconclusive: 18.7 µM [cytotoxic, partial curve, poor fit] | active: 14.8 µM | inconclusive: 10.5 µM [cytotoxic, partial curve] | active: 10.5 µM |  |  | 
CN1C(=O)C[C@H](C(=O)N[C@@H](Cc2cnc[nH]2)C(=O)N2CCC[C@@H]2C(N)=O)NC1=O | inactive | active: 2.96 µM | inactive |  | inconclusive: 20.9 µM [cytotoxic, partial curve, poor fit] |  |  | active: 10.5 µM |  |  | 
O=C1N(c2ccccc2)c2ccccc2C1(Cc1ccncc1)Cc1ccncc1 | inconclusive: 37.2 µM [rising, single point] | inactive | inconclusive: 33.2 µM [cytotoxic, single point] |  |  | inconclusive: 18.7 µM [cytotoxic, partial curve, poor fit] |  | active: 20.9 µM |  | inactive | inactive
CO[C@H]1C=CO[C@@]2(C)Oc3c(C)c(O)c4c(O)c(c(C=NN5CCN(C)CC5)c(O)c4c3C2=O)NC(=O)C(C)=CC=C[C@H](C)[C@H](O)[C@@H](C)[C@@H](O)[C@@H](C)[C@H](OC(C)=O)[C@H]1C | inactive | active: 2.12 µM | inactive |  | inconclusive: 2.12 µM [cytotoxic, partial curve, poor fit] |  |  | inconclusive: 0.0003 µM [rising, full curve, poor fit] |  | inconclusive: 0.0424 µM [cytotoxic, full curve, poor fit] | 

Taken from above:
Cc1ncc([N+](=O)[O-])n1CCO | Potency [2]: inconclusive: 0.0012 µM [rising, full curve, poor fit]
CCC(=O)O[C@]1(C(=O)CO)CC[C@H]2[C@@H]3CCC4=CC(=O)CC[C@]4(C)[C@@H]3CC[C@@]21C | Potency [4]: inconclusive: 37.2 µM [cytotoxic, single point]
